Results: US20070218463A1 (CANAG DIAGNOSTICS, published 2007)
No constants are given. Whether binding was seen depends on the method and setting. Some binding calls cover weakened binding; strength is not graded here. Sequences can lack the tags named with a protein.

Assays:
[1] = target: T1, Cathepsin G (Biodesign Int.) (UniProt P08311); assay: complex binding, SDS-PAGE
T1 sequence (looked up): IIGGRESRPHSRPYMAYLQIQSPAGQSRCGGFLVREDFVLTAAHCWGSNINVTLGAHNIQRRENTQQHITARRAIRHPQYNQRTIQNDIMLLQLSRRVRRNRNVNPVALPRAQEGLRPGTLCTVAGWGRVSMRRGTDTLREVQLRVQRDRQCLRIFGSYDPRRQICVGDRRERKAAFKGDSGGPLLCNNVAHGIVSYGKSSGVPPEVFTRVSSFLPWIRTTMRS

[2] = target: T1, Cathepsin G (Biodesign Int.); assay: complex binding, SDS-PAGE (FIG. 8)
[3] = target: T1, Cathepsin G (Biodesign Int.); assay: complex binding, 2 ug SCCA protein + 0.5 ug Cathepsin G, 37 C 30 min, SDS-PAGE

binding [1]: binds | binding [2]: binds | binding [3]: binds
B1: SCCA1/SCCA2 fusion protein (other)
chain: MNSLSEANTKFMFDLFQQFRKSKENNIFYSPISITSALGMVLLGAKDNTAQQIKKVLHFDQVTENTTGKAATYHVDRSGNVHHQFQKLLTEFNKSTDAYELKIANKLFGEKTYLFLQEYLDAIKKFYQTSVESVDFANAPEESRKKINSWVESQTNEKIKNLIPEGNIGSNTTLVLVNAIYFKGQWEKKFNKEDTKEEKFWPNKNTYKSIQMMRQYTSFHFASLEDVQAKVLEIPYKGKDLSMIVLLPNEIDGLQKLEEKLTAEKLMEWTSLQNMRETCVDLHLPRFKMEESYDLKDTLRTMGMVNIFNGDADLSGMTWSHGLSVSKVLHKAFVEVTEEGVEAAAATAVVVVELSSPSTNEEFCCNHPFLFFIRQNKTNSILFYGRFSSP
notes: Recombinant serpin fusion (exons 2-7 of SCCA1 fused to exon 8 of SCCA2); also called SCCA1/A2; SCCA1/A2 fusion protein
